# Measured values from the supplement of paper PMC8728848.
# The list shows a part of the results.
# B1: SP15308C-bot-338-23-338 (Bacteroides ovatus) (protein)
# chain: DEWTDEQFKQLISFKTQPGGWGVTDVHVRYANSAKYTYNLPVLVSGSTDNTDDRLVSFSLRDDTLDILNFEKFGNRPELYFRELPQKYYSFPKELTIPAGQSHALLPIEFSLDGLDDSQKWALPLKVCEDANGTYAVNPRKYYRTAVLRPILFNEFSGRFSGSSLLGTMAGESDIKFSSTEIKLNVVTDSIVFFYAGQRTEDYEDRINYKVFLQFTGDKVDSKKDLYKMKIWAENEKLKFNSYSTPTYKVSSEMDATKTYLKHTYIVISDIDFDFVDYTSVPNYEIEYNMKGGLSVSRDLDTRKPDEDQGSDSKWW
# What was measured:
# Assay in all cases: glycan array binding signal (z-score within array); higher = stronger binding
# Conditions in all cases: glycan notation: IUPAC condensed, linker removed
# [1] = molecular target: Neu5Ac(a2-3)Gal(b1-3)GlcNAc6S
# Summary of the method: (§1)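 Glycan array binding is given as a within-array Z-score, which can be read as non-binding when negative. The arrays, 3228 of them, came from the Consortium for Functional Glycomics database and were retained only where the protein sequence was available. Z-scores were averaged across arrays of the same protein sequence at different concentrations or buffers and across linkers.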
# [2] = molecular target: Neu5Ac(a2-3)Gal(b1-3)[Fuc(a1-4)]GlcNAc
# Summary of the method: as §1
# [3] = molecular target: Neu5Ac(a2-3)Gal(b1-3)[Fuc(a1-4)]GlcNAc(b1-3)Gal(b1-3)[Fuc(a1-4)]GlcNAc
# Summary of the method: as §1
# [4] = molecular target: Neu5Ac(a2-3)Gal(b1-3)[Fuc(a1-4)]GlcNAc(b1-3)Gal(b1-4)[Fuc(a1-3)]GlcNAc
# Summary of the method: as §1
# [5] = molecular target: Neu5Ac(a2-3)Gal(b1-3)[GlcNAc(b1-6)]GalNAc
# Summary of the method: as §1
# [6] = molecular target: Neu5Ac(a2-3)Gal(b1-3)[Neu5Ac(a2-6)]GalNAc
# Summary of the method: as §1
# [7] = molecular target: Neu5Ac(a2-3)Gal(b1-3)[Neu5Ac(a2-6)]GlcNAc(b1-3)[Fuc(a1-3)[Gal(b1-4)]GlcNAc(b1-6)]Gal(b1-4)Glc
# Summary of the method: as §1
# [8] = molecular target: Neu5Ac(a2-3)Gal(b1-3)]Neu5Ac(a2-3)Gal(b1-4)]GlcNAc
# Summary of the method: as §1
# Neu5Ac(a2-3)Gal(b1-4)Glc = molecular target: Neu5Ac(a2-3)Gal(b1-4)Glc
# Summary of the method: as §1
# [9] = molecular target: Neu5Ac(a2-3)Gal(b1-4)GlcNAc
# Summary of the method: as §1
# [10] = molecular target: Neu5Ac(a2-3)Gal(b1-4)GlcNAc(b1-2)Man
# Summary of the method: as §1
# [11] = molecular target: Neu5Ac(a2-3)Gal(b1-4)GlcNAc(b1-2)Man(a1-3)[GlcNAc(b1-4)][Neu5Ac(a2-3)Gal(b1-4)GlcNAc(b1-2)Man(a1-6)]Man(b1-4)GlcNAc(b1-4)GlcNAc
# Summary of the method: as §1
# [12] = molecular target: Neu5Ac(a2-3)Gal(b1-4)GlcNAc(b1-2)Man(a1-3)[Neu5Ac(a2-3)Gal(b1-4)GlcNAc(b1-2)Man(a1-6)]Man(b1-4)GlcNAc(b1-4)GlcNAc
# Summary of the method: as §1
# [13] = molecular target: Neu5Ac(a2-3)Gal(b1-4)GlcNAc(b1-2)Man(a1-3)[Neu5Ac(a2-3)Gal(b1-4)GlcNAc(b1-2)Man(a1-6)]Man(b1-4)GlcNAc(b1-4)[Fuc(a1-6)]GlcNAc
# Summary of the method: as §1
# [14] = molecular target: Neu5Ac(a2-3)Gal(b1-4)GlcNAc(b1-2)Man(a1-3)[Neu5Ac(a2-6)Gal(b1-4)GlcNAc(b1-2)Man(a1-6)]Man(b1-4)GlcNAc(b1-4)GlcNAc
# Summary of the method: as §1
# [15] = molecular target: Neu5Ac(a2-3)Gal(b1-4)GlcNAc(b1-2)[Neu5Ac(a2-3)Gal(b1-4)GlcNAc(b1-4)]Man(a1-3)[GlcNAc(b1-4)][Neu5Ac(a2-3)Gal(b1-4)GlcNAc(b1-2)[Neu5Ac(a2-3)Gal(b1-4)GlcNAc(b1-6)]Man(a1-6)]Man(b1-4)GlcNAc(b1-4)GlcNAc
# Summary of the method: as §1
# [16] = molecular target: Neu5Ac(a2-3)Gal(b1-4)GlcNAc(b1-2)[Neu5Ac(a2-3)Gal(b1-4)GlcNAc(b1-4)]Man(a1-3)[GlcNAc(b1-4)][Neu5Ac(a2-3)Gal(b1-4)GlcNAc(b1-4)Man(a1-6)]Man(b1-4)GlcNAc(b1-4)GlcNAc
# Summary of the method: as §1
# [17] = molecular target: Neu5Ac(a2-3)Gal(b1-4)GlcNAc(b1-2)[Neu5Ac(a2-3)Gal(b1-4)GlcNAc(b1-6)]Man(a1-6)[Neu5Ac(a2-3)Gal(b1-4)GlcNAc(b1-2)Man(a1-3)]Man(b1-4)GlcNAc(b1-4)GlcNAc
# Summary of the method: as §1
# [18] = molecular target: Neu5Ac(a2-3)Gal(b1-4)GlcNAc(b1-2)[Neu5Ac(a2-3)Gal(b1-4)GlcNAc(b1-6)]Man(a1-6)[Neu5Ac(a2-3)Gal(b1-4)GlcNAc(b1-2)Man(a1-3)][GlcNAc(b1-4)]Man(b1-4)GlcNAc(b1-4)GlcNAc
# Summary of the method: as §1
# [19] = molecular target: Neu5Ac(a2-3)Gal(b1-4)GlcNAc(b1-3)Gal
# Summary of the method: as §1
# [20] = molecular target: Neu5Ac(a2-3)Gal(b1-4)GlcNAc(b1-3)Gal(b1-3)GlcNAc
# Summary of the method: as §1
# [21] = molecular target: Neu5Ac(a2-3)Gal(b1-4)GlcNAc(b1-3)Gal(b1-4)GlcNAc
# Summary of the method: as §1
# [22] = molecular target: Neu5Ac(a2-3)Gal(b1-4)GlcNAc(b1-3)Gal(b1-4)GlcNAc(b1-2)Man(a1-3)[Neu5Ac(a2-3)Gal(b1-4)GlcNAc(b1-3)Gal(b1-4)GlcNAc(b1-2)Man(a1-6)]Man(b1-4)GlcNAc(b1-4)GlcNAc
# Summary of the method: as §1
# [23] = molecular target: Neu5Ac(a2-3)Gal(b1-4)GlcNAc(b1-3)Gal(b1-4)GlcNAc(b1-3)Gal(b1-4)GlcNAc
# Summary of the method: as §1
# [24] = molecular target: Neu5Ac(a2-3)Gal(b1-4)GlcNAc(b1-3)Gal(b1-4)GlcNAc(b1-3)Gal(b1-4)GlcNAc(b1-2)Man(a1-3)[Neu5Ac(a2-3)Gal(b1-4)GlcNAc(b1-3)Gal(b1-4)GlcNAc(b1-3)Gal(b1-4)GlcNAc(b1-2)Man(a1-6)]GalNAc
# Summary of the method: as §1
# [25] = molecular target: Neu5Ac(a2-3)Gal(b1-4)GlcNAc(b1-3)Gal(b1-4)GlcNAc(b1-3)GalNAc
# Summary of the method: as §1
# [26] = molecular target: Neu5Ac(a2-3)Gal(b1-4)GlcNAc(b1-3)Gal(b1-4)GlcNAc(b1-3)[Neu5Ac(a2-3)Gal(b1-4)GlcNAc(b1-3)Gal(b1-4)GlcNAc(b1-6)]GalNAc
# Summary of the method: as §1
# [27] = molecular target: Neu5Ac(a2-3)Gal(b1-4)GlcNAc(b1-3)Gal(b1-4)GlcNAc(b1-6)[Gal(b1-3)]GalNAc
# Summary of the method: as §1
# [28] = molecular target: Neu5Ac(a2-3)Gal(b1-4)GlcNAc(b1-3)Gal(b1-4)[Fuc(a1-3)]GlcNAc
# Summary of the method: as §1
# [29] = molecular target: Neu5Ac(a2-3)Gal(b1-4)GlcNAc(b1-3)GalNAc
# Summary of the method: as §1
# [30] = molecular target: Neu5Ac(a2-3)Gal(b1-4)GlcNAc(b1-3)[Neu5Ac(a2-3)Gal(b1-4)GlcNAc(b1-6)]GalNAc
# Summary of the method: as §1
# [31] = molecular target: Neu5Ac(a2-3)Gal(b1-4)GlcNAc(b1-6)GalNAc
# Summary of the method: as §1
# [32] = molecular target: Neu5Ac(a2-3)Gal(b1-4)GlcNAc(b1-6)[Gal(b1-3)]GalNAc
# Summary of the method: as §1
# [33] = molecular target: Neu5Ac(a2-3)Gal(b1-4)GlcNAc(b1-6)[Neu5Ac(a2-3)Gal(b1-3)]GalNAc
# Summary of the method: as §1
# [34] = molecular target: Neu5Ac(a2-3)Gal(b1-4)GlcNAc6S
# Summary of the method: as §1
# [35] = molecular target: Neu5Ac(a2-3)Gal(b1-4)[Fuc(a1-3)]GlcNAc
# Summary of the method: as §1
# [36] = molecular target: Neu5Ac(a2-3)Gal(b1-4)[Fuc(a1-3)]GlcNAc(b1-2)Man
# Summary of the method: as §1
# [37] = molecular target: Neu5Ac(a2-3)Gal(b1-4)[Fuc(a1-3)]GlcNAc(b1-3)Gal
# Summary of the method: as §1
# [38] = molecular target: Neu5Ac(a2-3)Gal(b1-4)[Fuc(a1-3)]GlcNAc(b1-3)Gal(b1-4)GlcNAc
# Summary of the method: as §1
# [39] = molecular target: Neu5Ac(a2-3)Gal(b1-4)[Fuc(a1-3)]GlcNAc(b1-3)Gal(b1-4)[Fuc(a1-3)]GlcNAc(b1-3)Gal(b1-4)[Fuc(a1-3)]GlcNAc
# Summary of the method: as §1
# [40] = molecular target: Neu5Ac(a2-3)Gal(b1-4)[Fuc(a1-3)]GlcNAc(b1-3)GalNAc
# Summary of the method: as §1
# [41] = molecular target: Neu5Ac(a2-3)Gal(b1-4)[Fuc(a1-3)]GlcNAc(b1-6)[Gal(b1-3)]GalNAc
# Summary of the method: as §1
# [42] = molecular target: Neu5Ac(a2-3)Gal(b1-4)[Fuc(a1-3)]GlcNAc(b1-6)[Neu5Ac(a2-3)Gal(b1-3)]GalNAc
# Summary of the method: as §1
# [43] = molecular target: Neu5Ac(a2-3)Gal(b1-4)[Fuc(a1-3)]GlcNAc6S
# Summary of the method: as §1
# [44] = molecular target: Neu5Ac(a2-3)Gal6S(b1-4)GlcNAc
# Summary of the method: as §1
binder,measurement,setting,value
B1,glycan array binding signal (z-score),[1],0.313
same,glycan array binding signal (z-score),[2],0.113
same,glycan array binding signal (z-score),[3],0.108
same,glycan array binding signal (z-score),[4],-0.887
same,glycan array binding signal (z-score),[5],0.217
same,glycan array binding signal (z-score),[6],-0.575
same,glycan array binding signal (z-score),[7],-0.841
same,glycan array binding signal (z-score),[8],-0.395
same,glycan array binding signal (z-score),Neu5Ac(a2-3)Gal(b1-4)Glc,0.324
same,glycan array binding signal (z-score),[9],0.023
same,glycan array binding signal (z-score),[10],1.38
same,glycan array binding signal (z-score),[11],0.031
same,glycan array binding signal (z-score),[12],0.647
same,glycan array binding signal (z-score),[13],0.225
same,glycan array binding signal (z-score),[14],-0.479
same,glycan array binding signal (z-score),[15],-0.286
same,glycan array binding signal (z-score),[16],-0.025
same,glycan array binding signal (z-score),[17],0.382
same,glycan array binding signal (z-score),[18],-0.756
same,glycan array binding signal (z-score),[19],0.337
same,glycan array binding signal (z-score),[20],-0.319
same,glycan array binding signal (z-score),[21],-0.078
same,glycan array binding signal (z-score),[22],-0.056
same,glycan array binding signal (z-score),[23],0.532
same,glycan array binding signal (z-score),[24],0.621
same,glycan array binding signal (z-score),[25],-0.584
same,glycan array binding signal (z-score),[26],0.638
same,glycan array binding signal (z-score),[27],0.146
same,glycan array binding signal (z-score),[28],-0.432
same,glycan array binding signal (z-score),[29],-0.558
same,glycan array binding signal (z-score),[30],-0.252
same,glycan array binding signal (z-score),[31],-0.912
same,glycan array binding signal (z-score),[32],-0.853
same,glycan array binding signal (z-score),[33],-0.219
same,glycan array binding signal (z-score),[34],0.009
same,glycan array binding signal (z-score),[35],-0.437
same,glycan array binding signal (z-score),[36],0.13
same,glycan array binding signal (z-score),[37],-0.325
same,glycan array binding signal (z-score),[38],-0.269
same,glycan array binding signal (z-score),[39],-0.739
same,glycan array binding signal (z-score),[40],3.23
same,glycan array binding signal (z-score),[41],1.72
same,glycan array binding signal (z-score),[42],0.418
same,glycan array binding signal (z-score),[43],-0.932
same,glycan array binding signal (z-score),[44],-1.16

# Two neighbouring records from above:
binder,measurement,setting,value
B1,glycan array binding signal (z-score),[24],0.621
same,glycan array binding signal (z-score),[25],-0.584
